# Counter-ions that a name gives are not always drawn. Some of the results follow. The calls rarely recur for the same compound in another form.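 In K562 cells expressing nanoluciferase-fused kinases, luminescence was recorded at 4 h intervals between 2 and 18 h, normalized as percent of control with DMSO at 100% and a positive control at 0%. A significant (2 sigma) signal drop marks a time point as decreased. The authors' rule for a hit is not shown and takes in more than the number of time points.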
# Protein sequences, listed by entry. Tags and fused reporters are not part of them.
# UniProt Q01974, whole entry: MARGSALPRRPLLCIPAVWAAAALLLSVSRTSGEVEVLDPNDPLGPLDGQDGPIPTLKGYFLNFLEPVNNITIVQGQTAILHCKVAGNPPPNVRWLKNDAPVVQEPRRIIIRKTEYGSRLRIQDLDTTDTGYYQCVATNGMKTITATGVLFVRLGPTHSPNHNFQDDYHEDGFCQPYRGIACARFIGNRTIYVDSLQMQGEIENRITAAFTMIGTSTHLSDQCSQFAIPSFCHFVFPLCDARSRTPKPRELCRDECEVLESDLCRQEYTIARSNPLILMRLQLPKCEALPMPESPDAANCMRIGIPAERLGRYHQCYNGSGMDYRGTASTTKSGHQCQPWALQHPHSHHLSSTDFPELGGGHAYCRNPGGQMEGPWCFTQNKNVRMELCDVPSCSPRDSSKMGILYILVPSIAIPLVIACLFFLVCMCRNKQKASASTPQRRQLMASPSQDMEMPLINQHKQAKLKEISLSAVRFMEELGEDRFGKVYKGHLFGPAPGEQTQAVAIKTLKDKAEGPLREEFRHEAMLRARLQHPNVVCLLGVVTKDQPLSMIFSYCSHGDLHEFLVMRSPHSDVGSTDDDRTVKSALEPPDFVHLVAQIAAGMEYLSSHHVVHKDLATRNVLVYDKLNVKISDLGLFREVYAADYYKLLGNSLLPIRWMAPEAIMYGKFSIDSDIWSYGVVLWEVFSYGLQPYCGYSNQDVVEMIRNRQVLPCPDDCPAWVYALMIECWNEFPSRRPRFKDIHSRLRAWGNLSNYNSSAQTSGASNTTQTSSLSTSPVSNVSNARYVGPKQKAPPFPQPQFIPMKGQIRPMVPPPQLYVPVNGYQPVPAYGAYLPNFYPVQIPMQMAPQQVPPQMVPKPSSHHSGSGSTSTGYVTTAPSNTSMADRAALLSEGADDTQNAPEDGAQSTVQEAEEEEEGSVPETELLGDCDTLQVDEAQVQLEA
# Molecular target: ROR2 (UniProt Q01974)
# Test: number of time points (of 5) at which kinase-Nluc abundance scored as decreased, DMSO-normalised (count); higher = more persistent destabilization
# Details: K562; 2-18 h
row,Compound,number of time points
1,Cn1cc(-c2cc(Oc3cc(F)c(NC(=O)C4(C(=O)Nc5ccccc5)CC4)cc3F)ccn2)cn1 (2.5 µM),0
2,Nc1[nH]nc2nc(-c3ccc(NS(=O)(=O)c4cc(Cl)ccc4Cl)cc3)cnc12 (10 µM),0
3,Cc1cccc(/C=N/Nc2cc(N3CCOCC3)n3nc(-c4ccncc4)cc3n2)c1 (10 µM),0
4,CC(C)n1ncnc1-c1cn2c(n1)-c1ccc(O[C@@H](C)C(N)=O)cc1OCC2 (10 µM),0
5,COC(=O)[C@H](CCSC)NC(=O)c1ccc(NC[C@@H](N)CS)cc1-c1ccccc1 [FTI-277 (hydrochloride)] (10 µM),0
6,O=C(Nc1cccc(-c2nc(-c3ccc(NC(=O)c4cccnc4)cc3Cl)no2)c1)Nc1ccc(NC(=O)C2CC2)c(C(F)(F)F)c1 (2.5 µM),0
7,CN1CCN(c2cc(-c3ccncc3)c(-c3ccc4ccccc4c3)nn2)CC1 (10 µM),0
8,CNC(=O)c1ccc2c(c1)ncn2-c1ccc(CC(=O)OC(C)(C)C)cc1 (10 µM),0
9,O=C(O)[C@H]1O[C@@H](Oc2cc3oc(-c4ccc(O)cc4)cc(=O)c3c(O)c2O)[C@H](O)[C@@H](O)[C@@H]1O [Scutellarin] (10 µM),0
10,Cc1nn(C)cc1-c1nc2c(N3CCN(Cc4ccc(Cl)cc4)CC3)c(Cl)cnc2[nH]1 (10 µM),0
11,Cc1cc(CSc2ccccc2C(=O)NCCNc2ccc(C(F)(F)F)cc2[N+](=O)[O-])on1 (10 µM),0
12,NC(=O)c1cnc(-c2ccc(C3(N)CCC3)cc2)c(-c2ccccc2)c1 (10 µM),0
13,CCCCCC(=O)N[C@@H](Cc1ccc(O)cc1)C(=O)OC (10 µM),0
14,CNC(=O)c1ccc2c(C(=Nc3cccc(CN(C)C)c3)c3ccccc3)c(O)[nH]c2c1 [MEK inhibitor] (10 µM),0
15,COc1cc2ncnc(Nc3cccc(I)c3)c2cc1OC (2.5 µM),0
16,COc1c(O)cc2oc(-c3ccc(O)cc3)cc(=O)c2c1O [Hispidulin] (10 µM),0
17,CC(C)=CC[C@@H](O)C1=CC(=O)c2c(O)ccc(O)c2C1=O [Shikonin] (10 µM),0
18,N[C@@H]1CCCN(c2c(/C=C3\SC(=O)NC3=O)cccc2-c2ccccc2)C1 (10 µM),0
19,NC(=O)c1ccc(N(C(N)=O)c2c(F)cccc2F)nc1-c1ccc(F)cc1F (10 µM),0

# Quoted at random: two compounds from above.
row,Compound,number of time points
17,CC(C)=CC[C@@H](O)C1=CC(=O)c2c(O)ccc(O)c2C1=O [Shikonin] (10 µM),0
1,Cn1cc(-c2cc(Oc3cc(F)c(NC(=O)C4(C(=O)Nc5ccccc5)CC4)cc3F)ccn2)cn1 (2.5 µM),0

# Further entries follow.

row,Compound,number of time points
1,NC1(C(=O)NCCCn2cc(-c3ccc(OC(F)(F)F)cc3)c3cc(CN4CCN(Cc5c(Cl)cccc5Cl)CC4)ccc32)CCNCC1 (2.5 µM),0
2,Cc1cc(O)c2c(c1)C(=O)c1cccc(O)c1C2=O [Chrysophanol] (2 µM),0
3,COc1cc2nccc(Oc3ccc(NC(=O)c4cn(C(C)C)c(=O)n(-c5ccc(F)cc5)c4=O)cc3F)c2cc1OC (0.5 µM),0
4,O=C(Nc1cccnc1)c1cc(-c2ccnc(F)c2)ccc1OCc1ccccc1 (10 µM),0
5,NC[C@@](O)(c1ccc(Cl)cc1)c1ccc(-c2cn[nH]c2)cc1 (10 µM),0
6,O=C1NC(=O)/C(=C\c2c[nH]c(=O)c(-c3ccc(N4CCNCC4)nc3)c2)S1 [Protein kinase inhibitors 1 hydrochloride] (10 µM),0
7,C[C@@H](Nc1ncnc2[nH]c(-c3ccc(O)cc3)cc12)c1ccccc1 (2.5 µM),0
8,Cc1ccc(C(=O)NC2CC2)cc1-n1ncc(C(=O)c2cccc(C#N)c2)c1N [Acumapimod] (10 µM),0
9,C[C@H]1O[C@@H](O[C@H]2CC[C@@]3(C)[C@@H](CC[C@]4(C)[C@@H]3C=C[C@]35OC[C@@]6(CCC(C)(C)C[C@H]63)[C@H](O)C[C@]54C)[C@]2(C)CO)[C@H](O)[C@@H](O[C@@H]2O[C@H](CO)[C@@H](O)[C@H](O)[C@H]2O)[C@H]1O [Saikosaponin D] (2.5 µM),0
10,N#Cc1ccc(-c2cnc3[nH]cc(NC(=O)c4cccnc4)c3c2)cc1 (10 µM),0
11,CCCCCc1ccc(/C=C/[C@H](O)[C@@H](CO)NC)cc1 [SK1-I (hydrochloride)] (10 µM),0
12,COc1ccc2c3n(c(=NC(=O)c4cccnc4)nc2c1OC)CCN3 (2 µM),0
13,CN1CCN(c2ccc(Nc3ncc4cc(C#N)c(=O)n(C5CCCC5)c4n3)cc2)CC1 (10 µM),0
14,COc1ccc(S(=O)(=O)Nc2cc(-c3c(O)ccc4ccccc34)c(O)c3ccccc23)cc1 (10 µM),0
15,CC(C)(C)Cc1[nH]nc2c1[C@@](C)(c1ccccc1)C1=C(CC(C)(C)CC1=O)N2 (10 µM),0
16,Cn1c2cc([S+](C)[O-])sc2c2cnn(Cc3cccc(N)c3)c(=O)c21 (stereo not drawn) (2.5 µM),0
17,Nc1ncc(-c2ccnc(Nc3ccncc3)n2)c(CC2CC2)n1 (10 µM),0
18,O=C(NCCN1CCOCC1)Nc1nc2ccc(Sc3nnc4ccc(-c5ccc(F)cc5)nn34)cc2s1 (10 µM),0
19,CC(C)Oc1ccc(F)c(-c2cnc(N)c(C(=O)Nc3cnccc3N3CCC[C@@H](C(=O)O)C3)n2)c1 (2 µM),0
